Laboratory results: PubChem BioAssay AID1259424 (University of Nebraska Medical Center, 2018)

- Assay: 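Seek colon cancer survival genes behaving like KSR1, using a six-gene signature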 (primary screen)
- Cells: human HCT116 colon cancer cells
- Reagent: siRNA pool against human genes, 50 nM
- Read-out: 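Log2 levels of six mRNAs (branched-DNA multiplex), adjusted by two reference genes and the non-targeting median, then scored against the average KSR1 knockdown pattern as Pearson r and euclidean distance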
- Reading the numbers: mean correlation with KSR1 profile and KSR1 correlation: higher = expression change more like KSR1 knockdown; mean distance from KSR1 profile: higher = expression change less like KSR1 knockdown
Here is one part, drawn at random, of about 14,000 deposited reagents. 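Higher correlation or smaller distance means closer resemblance to KSR1 loss; control wells, including KSR1 knockdowns, recur on many plates.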 Reagent sequences are not shown. Not given: the time to read-out.

| Gene | mean correlation with KSR1 profile | mean distance from KSR1 profile | KSR1 correlation, replicate 1 | KSR1 correlation, replicate 2 | KSR1 correlation, replicate 3 |
| --- | --- | --- | --- | --- | --- |
| CD47 | 0.344 | 1.42 | 0.488 | -0.0809 | 0.674 |
| POPDC1 | -0.728 | 1.5 | -0.698 | -0.814 | -0.3 |
| GRAMD4 | -0.707 | 2.14 | -0.674 | -0.5 | -0.778 |
| TUBA3C | -0.107 | 4.33 | 0.00458 | -0.102 | -0.284 |
| ASMTL | -0.405 | 2.54 | -0.369 | -0.511 | -0.333 |
| CHMP2A | -0.786 | 4.14 | -0.746 | -0.666 | -0.674 |
| UBA5 | 0.716 | 1.97 | 0.712 | 0.797 | 0.654 |
| TRMO | -0.257 | 2.1 | -0.102 | -0.106 | -0.287 |
| FCHSD2 | -0.283 | 1.35 | -0.721 | -0.215 | 0.203 |
| PCNA | 0.902 | 2.62 | 0.92 | 0.777 | 0.55 |
| CYBB | -0.351 | 2.88 | -0.238 | -0.476 | -0.435 |
| LMO4 | 0.0664 | 1.96 | 0.0916 | -0.138 | 0.0122 |
| ALDH5A1 | -0.241 | 2.6 | -0.0431 | -0.307 | -0.138 |
| GDAP2 | -0.132 | 2.86 | -0.337 | -0.211 | -0.0932 |
| MTCL2 | -0.435 | 3.38 | -0.297 | -0.479 | -0.447 |
| DCLRE1B | -0.124 | 2.33 | 0.0404 | -0.346 | -0.213 |
| SCNN1G | -0.508 | 2.28 | -0.356 | -0.525 | -0.268 |
| SEMA3F | -0.795 | 3.19 | -0.749 | -0.798 | -0.748 |
| GLCE | -0.498 | 1.67 | 0.0161 | -0.386 | -0.619 |
| MYO16 | -0.627 | 2.18 | -0.418 | -0.683 | -0.565 |
| VSIG2 | 0.537 | 1.63 | 0.655 | 0.49 | 0.285 |
| BTRC | 0.761 | 0.567 | 0.339 | 0.695 | 0.69 |
| TIMELESS | 0.838 | 0.911 | 0.819 | 0.874 | 0.764 |
| GNRHR | 0.56 | 1.99 | 0.506 | 0.645 | 0.307 |
| RNF111 | -0.734 | 6.17 | -0.218 | -0.565 | -0.0393 |
| PCDHA12 | 0.225 | 2.48 | 0.164 | -0.13 | 0.323 |
| GOLGA2P5 | -0.519 | 2.62 | -0.604 | -0.0889 | -0.677 |
| SNW1 | -0.602 | 1.65 | 0.078 | -0.14 | -0.576 |
| FLJ10232 (retired record) | 0.38 | 5.94 | 0.445 | 0.34 | 0.319 |
| IL36RN | 0.364 | 0.999 | -0.228 | 0.47 | 0.645 |
| RTN4RL1 | -0.47 | 1.94 | -0.681 | -0.434 | -0.41 |
| TUBA4B | 0.321 | 1.96 | 0.344 | 0.18 | 0.0801 |
| CNOT4 | -0.577 | 1.44 | -0.736 | -0.585 | -0.376 |
| TRIM28 | 0.239 | 1.72 | 0.164 | -0.0164 | 0.394 |
| AZIN1 | -0.0305 | 1.3 | -0.0322 | 0.186 | -0.484 |
| EI24 | -0.328 | 1.59 | -0.371 | -0.214 | -0.374 |
| DNAJC12 | -0.689 | 3.06 | -0.633 | -0.705 | -0.753 |
| CACNA1H | 0.275 | 1.72 | 0.279 | 0.162 | 0.375 |
| SIGLEC11 | 0.798 | 1.66 | 0.821 | 0.824 | 0.518 |
| ASL | 0.416 | 1.28 | 0.267 | 0.411 | 0.505 |
| PHYHIPL | 0.116 | 2.07 | 0.12 | 0.144 | -0.312 |
| MSH3 | -0.467 | 2.16 | -0.911 | -0.629 | -0.0328 |
| MMP12 | -0.276 | 3.13 | -0.268 | -0.197 | -0.521 |
| PTGER2 | 0.564 | 2.64 | 0.522 | 0.733 | 0.595 |
| CDK19 | 0.234 | 3.24 | 0.0994 | 0.308 | 0.0197 |
| BABAM1 | 0.217 | 1.64 | -0.00824 | -0.0993 | 0.108 |
| GALNT9 | -0.354 | 1.27 | -0.595 | -0.343 | 0.00766 |
| CYP4F12 | -0.167 | 3.48 | -0.205 | -0.241 | -0.227 |
| SLC30A9 | 0.000238 | 4.56 | 0.164 | -0.0285 | -0.114 |
| NUAK2 | -0.221 | 3.38 | 0.00225 | -0.237 | -0.567 |
| SCN5A | -0.422 | 2.13 | -0.631 | -0.421 | -0.232 |
| RFXANK | 0.743 | 1.27 | 0.364 | 0.882 | 0.762 |
| SWAP70 | -0.642 | 1.97 | -0.336 | -0.633 | -0.596 |
| TEK | 0.072 | 3.11 | 0.215 | 0.239 | -0.386 |
| FDPS | -0.0604 | 2.21 | 0.00831 | -0.288 | -0.499 |
| ZNF43 | -0.163 | 1.94 | -0.115 | -0.031 | 0.00601 |
| SH3PXD2A | 0.0445 | 3.16 | -0.54 | -0.232 | 0.519 |
| BZW1 | 0.324 | 2.21 | 0.367 | 0.45 | 0.276 |
| PRDM7 | 0.502 | 1.78 | 0.543 | 0.476 | 0.392 |
| RNF4 | -0.4 | 1.73 | -0.641 | -0.466 | -0.0137 |
| APOC3 | 0.477 | 1.56 | 0.438 | 0.299 | 0.485 |
| PDE4B | 0.704 | 0.688 | 0.555 | 0.809 | 0.765 |
| GZMH | 0.183 | 2.02 | -0.0237 | 0.0694 | 0.323 |

An excerpt from above, reduced to “mean correlation with KSR1 profile”.
TIMELESS = 0.838
GNRHR = 0.56
RNF111 = -0.734
PCDHA12 = 0.225
